No constants are given. Whether binding was seen depends on the method and setting. Binding seen in cells or lysates may run through a third protein. Some binding calls cover weakened binding; strength is not graded here.
Tests used:
[1] = target: APE1 D148E genetic variant, Flag-tagged (human) (UniProt P27695); assay: co-IP; HeLa cells transiently transfected with Flag-tagged APE1 plasmids; co-immunoprecipitated Polβ and XRCC1 detected by Western blot, normalized to the FLAG-tagged variant levels; APE1^WT set to 100%
[2] = target: Apurinic/apyrimidinic endonuclease 1 (APE1), wild type, Flag-tagged (human) (UniProt P27695); assay: as above

Amino acid sequences for entries named in this document (tags omitted). A change or cut given only in a name is not applied to a line headed by its entry.
UniProt P27695: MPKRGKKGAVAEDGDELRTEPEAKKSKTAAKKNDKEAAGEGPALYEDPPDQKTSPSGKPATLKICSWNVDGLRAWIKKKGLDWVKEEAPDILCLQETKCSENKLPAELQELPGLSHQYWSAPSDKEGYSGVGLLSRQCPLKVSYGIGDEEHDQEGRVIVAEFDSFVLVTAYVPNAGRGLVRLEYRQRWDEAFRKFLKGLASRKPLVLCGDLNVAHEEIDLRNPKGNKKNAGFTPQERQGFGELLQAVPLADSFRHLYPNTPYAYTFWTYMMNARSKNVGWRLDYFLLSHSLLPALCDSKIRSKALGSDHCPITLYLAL
UniProt P18887: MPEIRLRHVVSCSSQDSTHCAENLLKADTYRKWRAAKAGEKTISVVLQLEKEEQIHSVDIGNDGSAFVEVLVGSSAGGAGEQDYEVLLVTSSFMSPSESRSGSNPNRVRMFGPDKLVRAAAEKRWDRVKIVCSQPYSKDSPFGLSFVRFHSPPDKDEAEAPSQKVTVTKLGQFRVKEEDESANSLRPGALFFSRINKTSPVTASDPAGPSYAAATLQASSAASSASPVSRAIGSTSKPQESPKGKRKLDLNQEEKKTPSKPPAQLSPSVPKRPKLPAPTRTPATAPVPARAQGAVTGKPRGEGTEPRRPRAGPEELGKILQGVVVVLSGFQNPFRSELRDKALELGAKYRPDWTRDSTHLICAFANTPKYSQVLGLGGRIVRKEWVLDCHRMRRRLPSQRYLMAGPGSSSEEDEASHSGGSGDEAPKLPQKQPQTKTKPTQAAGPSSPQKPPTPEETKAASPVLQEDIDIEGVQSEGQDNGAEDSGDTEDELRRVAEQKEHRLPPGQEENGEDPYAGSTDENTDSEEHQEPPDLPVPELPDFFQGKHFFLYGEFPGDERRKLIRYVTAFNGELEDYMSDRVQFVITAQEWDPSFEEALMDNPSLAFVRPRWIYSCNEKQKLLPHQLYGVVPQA

With “X-ray repair cross-complementing protein 1 (from UniProt P18887 1-633)” the binding [1] was “binds”.
In the case of “X-ray repair cross-complementing protein 1 (from UniProt P18887 1-633) (other; other documents disagree on this pair)”, the binding [2] is reported as “binds”.

From article PMC5041981
